Results from patent publication US12268227B2, “Production of flavor concentrates by osmosis” (SYMRISE AG, priority 2017, dated 2025).

Test: Sensory recovery coefficient (SWF) and W parameter
Settings: not given

| Structure (SMILES) | W = log (SWF) |
| --- | --- |
| CC=O [acetaldehyde] | −1.98 |
| CCCO [propanol] | −3.24 |

Same assay, conditions: log10 of SWF

| Structure (SMILES) | W = log (SWF) |
| --- | --- |
| CC(=O)C(C)=O [2,3-butanedione] | −2.24 |
| CCC(=O)C(C)=O [2,3-pentanedione] | −0.54 |
| CCC(C)C=O (stereo not shown) [2-methylbutyraldehyde] | 1.45 |
| CC(=O)O [acetic acid] | −5.48 |
| CCOC(C)=O [ethyl acetate] | −2.76 |
| CCCC(=O)OCC [ethyl butanoate] | 1.49 |
| CCCCCC(=O)OCC [ethyl hexanoate] | 1.71 |
| CCCCC1CCC(=O)O1 (stereo not shown) [gamma-octalactone] | 0.71 |
| CC(C)=CCC/C(C)=C/C=O [geranial] | 0.68 |
| CCCCCC=O [hexanal] | 0.65 |
| CCCCCC(=O)O [hexanoic acid] | −1.79 |
| C=CC(C)(O)CCC=C(C)C (stereo not shown) [linalool] | 0.72 |
| CO [methanol] | −5.93 |
| CCC=O [propanal] | −1.75 |
